For this experiment, the target named is 14-3-3 (bait; construct not stated for these experiments). Nature of the experiment: affinity purification with mass spectrometry; SILAC; 14-3-3 pull downs from cells irradiated with UV light against cells pretreated with the p38 inhibitor and then irradiated; 14-3-3 as bait.

Results are given in words; binding and its absence hold for the method and conditions named. In cells and extracts the contact can be indirect. Here binding means that the protein was enriched with, or labelled near, the bait; the list need not be complete.

B1: SMC1A (protein, UniProt Q14683 1-1233)
chain: MGFLKLIEIENFKSYKGRQIIGPFQRFTAIIGPNGSGKSNLMDAISFVLGEKTSNLRVKTLRDLIHGAPVGKPAANRAFVSMVYSEEGAEDRTFARVIVGGSSEYKINNKVVQLHEYSEELEKLGILIKARNFLVFQGAVESIAMKNPKERTALFEEISRSGELAQEYDKRKKEMVKAEEDTQFNYHRKKNIAAERKEAKQEKEEADRYQRLKDEVVRAQVQLQLFKLYHNEVEIEKLNKELASKNKEIEKDKKRMDKVEDELKEKKKELGKMMREQQQIEKEIKEKDSELNQKRPQYIKAKENTSHKIKKLEAAKKSLQNAQKHYKKRKGDMDELEKEMLSVEKARQEFEERMEEESQSQGRDLTLEENQVKKYHRLKEEASKRAATLAQELEKFNRDQKADQDRLDLEERKKVETEAKIKQKLREIEENQKRIEKLEEYITTSKQSLEEQKKLEGELTEEVEMAKRRIDEINKELNQVMEQLGDARIDRQESSRQQRKAEIMESIKRLYPGSVYGRLIDLCQPTQKKYQIAVTKVLGKNMDAIIVDSEKTGRDCIQYIKEQRGEPETFLPLDYLEVKPTDEKLRELKGAKLVIDVIRYEPPHIKKALQYACGNALVCDNVEDARRIAFGGHQRHKTVALDGTLFQKSGVISGGASDLKAKARRWDEKAVDKLKEKKERLTEELKEQMKAKRKEAELRQVQSQAHGLQMRLKYSQSDLEQTKTRHLALNLQEKSKLESELANFGPRINDIKRIIQSREREMKDLKEKMNQVEDEVFEEFCREIGVRNIREFEEEKVKRQNEIAKKRLEFENQKTRLGIQLDFEKNQLKEDQDKVHMWEQTVKKDENEIEKLKKEEQRHMKIIDETMAQLQDLKNQHLAKKSEVNDKNHEMEEIRKKLGGANKEMTHLQKEVTAIETKLEQKRSDRHNLLQACKMQDIKLPLSKGTMDDISQEEGSSQGEDSVSGSQRISSIYAREALIEIDYGDLCEDLKDAQAEEEIKQEMNTLQQKLNEQQSVLQRIAAPNMKAMEKLESVRDKFQETSDEFEAARKRAKKAKQAFEQIKKERFDRFNACFESVATNIDEIYKALSRNSSAQAFLGPENPEEPYLDGINYNCVAPGKRFRPMDNLSGGEKTVAALALLFAIHSYKPAPFFVLDEIDAALDNTNIGKVANYIKEQSTCNFQAIVISLKEEFYTKAESLIGVYPEQGDCVISKVLTFDLTKYPDANPNPNEQ
B1: the binding entry is “binds”.

B2: CPSF1 (protein, UniProt Q10570 1-1443)
chain: MYAVYKQAHPPTGLEFSMYCNFFNNSERNLVVAGTSQLYVYRLNRDAEALTKNDRSTEGKAHREKLELAASFSFFGNVMSMASVQLAGAKRDALLLSFKDAKLSVVEYDPGTHDLKTLSLHYFEEPELRDGFVQNVHTPRVRVDPDGRCAAMLVYGTRLVVLPFRRESLAEEHEGLVGEGQRSSFLPSYIIDVRALDEKLLNIIDLQFLHGYYEPTLLILFEPNQTWPGRVAVRQDTCSIVAISLNITQKVHPVIWSLTSLPFDCTQALAVPKPIGGVVVFAVNSLLYLNQSVPPYGVALNSLTTGTTAFPLRTQEGVRITLDCAQATFISYDKMVISLKGGEIYVLTLITDGMRSVRAFHFDKAAASVLTTSMVTMEPGYLFLGSRLGNSLLLKYTEKLQEPPASAVREAADKEEPPSKKKRVDATAGWSAAGKSVPQDEVDEIEVYGSEAQSGTQLATYSFEVCDSILNIGPCANAAVGEPAFLSEEFQNSPEPDLEIVVCSGHGKNGALSVLQKSIRPQVVTTFELPGCYDMWTVIAPVRKEEEDNPKGEGTEQEPSTTPEADDDGRRHGFLILSREDSTMILQTGQEIMELDTSGFATQGPTVFAGNIGDNRYIVQVSPLGIRLLEGVNQLHFIPVDLGAPIVQCAVADPYVVIMSAEGHVTMFLLKSDSYGGRHHRLALHKPPLHHQSKVITLCLYRDLSGMFTTESRLGGARDELGGRSGPEAEGLGSETSPTVDDEEEMLYGDSGSLFSPSKEEARRSSQPPADRDPAPFRAEPTHWCLLVRENGTMEIYQLPDWRLVFLVKNFPVGQRVLVDSSFGQPTTQGEARREEATRQGELPLVKEVLLVALGSRQSRPYLLVHVDQELLIYEAFPHDSQLGQGNLKVRFKKVPHNINFREKKPKPSKKKAEGGGAEEGAGARGRVARFRYFEDIYGYSGVFICGPSPHWLLVTGRGALRLHPMAIDGPVDSFAPFHNVNCPRGFLYFNRQGELRISVLPAYLSYDAPWPVRKIPLRCTAHYVAYHVESKVYAVATSTNTPCARIPRMTGEEKEFETIERDERYIHPQQEAFSIQLISPVSWEAIPNARIELQEWEHVTCMKTVSLRSEETVSGLKGYVAAGTCLMQGEEVTCRGRILIMDVIEVVPEPGQPLTKNKFKVLYEKEQKGPVTALCHCNGHLVSAIGQKIFLWSLRASELTGMAFIDTQLYIHQMISVKNFILAADVMKSISLLRYQEESKTLSLVSRDAKPLEVYSVDFMVDNAQLGFLVSDRDRNLMVYMYLPEAKESFGGMRLLRRADFHVGAHVNTFWRTPCRGATEGLSKKSVVWENKHITWFATLDGGIGLLLPMQEKTYRRLLMLQNALTTMLPHHAGLNPRAFRMLHVDRRTLQNAVRNVLDGELLNRYLYLSTMERSELAKKIGTTPDIILDDLLETDRVTAHF
On to B2, for which the binding result is listed as “binds”.

The values above are taken from paper PMC5845016.
